# These are yes or no findings as the source states them, for the method shown. Some results given as binding are weak or reduced against the parent protein; the word gives no strength.
# Molecular target: PDGF D C-terminal fragment, the subunit of the p35 dimer (from HEK 293 cells grown with fetal bovine serum) (human)
# Experiment: SDS-PAGE of purified protein, non-reducing against reducing conditions, with N-terminal sequencing (homodimer)
substance,measurement,value
"PDGF D C-terminal fragment, the subunit of the p35 dimer (from HEK 293 cells grown with fetal bovine serum) (from UniProt Q5RA73 250-370) (ligand)",binding,binds
